Source: patent US20170355765A1 (published 2017)
Results are given in words; binding and its absence hold for the method and conditions named. Some entries that bind do so weakly or less than the wild type.

Sequences of proteins named here, by UniProt entry; tags and fusion partners are left off. Residues count along the entry.
UniProt Q9CZ52, residues 31-319: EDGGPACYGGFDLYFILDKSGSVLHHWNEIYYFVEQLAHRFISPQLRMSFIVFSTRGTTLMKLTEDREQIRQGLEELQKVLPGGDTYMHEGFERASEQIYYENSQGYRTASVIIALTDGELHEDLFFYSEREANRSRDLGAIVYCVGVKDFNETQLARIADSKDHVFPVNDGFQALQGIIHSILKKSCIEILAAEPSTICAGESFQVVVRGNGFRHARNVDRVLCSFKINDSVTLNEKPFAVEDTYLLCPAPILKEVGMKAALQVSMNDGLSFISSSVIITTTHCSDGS

Biological target: mouse TEM8 (mouse) (UniProt Q9CZ52)
Assay: screening assays, IgG1 format

binding: binds
B1: m863 antibody in human IgG1 format (antibody, V domains shown)
VH: EVQLVETGAEVKKPGASVKVSCKASGYTFTGYYMHWVRQAPGQGLEWMGWINPTSGSTNYAQKFQGRVTMTRDTSISTAYMELSGLRSDDTAVYYCVRDPGSPKWLAFDPWGQGTLVTVSS
VL: DIQLTQSPSSLSASVGDRVTITCRASRAISRYLNWYQQKPGKAPKLLIYAASSLQSGVSSRFSGSGSGTEFTLTISSLQPEDFATYFCQQTYSPPITFGQGTRLEIKR
